Experimental data reported in paper doi:10.1101/2024.08.08.607204, “Mechanism of ASF1 Inhibition by CDAN1” (bioRxiv, 2024).
Numbering of substitutions follows the chain as printed. Numbers in names are those of the source. These are yes or no findings as the source states them, for the method shown. In cells and extracts the contact can be indirect. Some results given as binding are weak or reduced against the parent protein; the word gives no strength. For some assays here: Sequences can lack the tags named with a protein. Values belong to the molecule of their own block, whether it stands above or below them.

Protein sequences, listed by entry. Tags and fused reporters are not part of them.
UniProt Q9Y294: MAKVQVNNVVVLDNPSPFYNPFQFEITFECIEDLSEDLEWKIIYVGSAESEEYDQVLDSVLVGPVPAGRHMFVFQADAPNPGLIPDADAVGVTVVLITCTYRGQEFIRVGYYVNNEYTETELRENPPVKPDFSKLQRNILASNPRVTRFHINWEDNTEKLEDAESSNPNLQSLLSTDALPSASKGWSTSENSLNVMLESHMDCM
UniProt Q9NVP2: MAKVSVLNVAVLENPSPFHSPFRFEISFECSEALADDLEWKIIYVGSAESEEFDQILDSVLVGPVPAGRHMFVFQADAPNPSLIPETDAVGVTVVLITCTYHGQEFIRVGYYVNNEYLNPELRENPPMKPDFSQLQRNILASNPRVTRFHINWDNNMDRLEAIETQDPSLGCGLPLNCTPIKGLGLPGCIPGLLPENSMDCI

T1: Strep-CDAN1 H*+B* (S194A/R195A/R196 + R541A/R544A/R548A) (human) (UniProt Q8IWY9)
T1 sequence: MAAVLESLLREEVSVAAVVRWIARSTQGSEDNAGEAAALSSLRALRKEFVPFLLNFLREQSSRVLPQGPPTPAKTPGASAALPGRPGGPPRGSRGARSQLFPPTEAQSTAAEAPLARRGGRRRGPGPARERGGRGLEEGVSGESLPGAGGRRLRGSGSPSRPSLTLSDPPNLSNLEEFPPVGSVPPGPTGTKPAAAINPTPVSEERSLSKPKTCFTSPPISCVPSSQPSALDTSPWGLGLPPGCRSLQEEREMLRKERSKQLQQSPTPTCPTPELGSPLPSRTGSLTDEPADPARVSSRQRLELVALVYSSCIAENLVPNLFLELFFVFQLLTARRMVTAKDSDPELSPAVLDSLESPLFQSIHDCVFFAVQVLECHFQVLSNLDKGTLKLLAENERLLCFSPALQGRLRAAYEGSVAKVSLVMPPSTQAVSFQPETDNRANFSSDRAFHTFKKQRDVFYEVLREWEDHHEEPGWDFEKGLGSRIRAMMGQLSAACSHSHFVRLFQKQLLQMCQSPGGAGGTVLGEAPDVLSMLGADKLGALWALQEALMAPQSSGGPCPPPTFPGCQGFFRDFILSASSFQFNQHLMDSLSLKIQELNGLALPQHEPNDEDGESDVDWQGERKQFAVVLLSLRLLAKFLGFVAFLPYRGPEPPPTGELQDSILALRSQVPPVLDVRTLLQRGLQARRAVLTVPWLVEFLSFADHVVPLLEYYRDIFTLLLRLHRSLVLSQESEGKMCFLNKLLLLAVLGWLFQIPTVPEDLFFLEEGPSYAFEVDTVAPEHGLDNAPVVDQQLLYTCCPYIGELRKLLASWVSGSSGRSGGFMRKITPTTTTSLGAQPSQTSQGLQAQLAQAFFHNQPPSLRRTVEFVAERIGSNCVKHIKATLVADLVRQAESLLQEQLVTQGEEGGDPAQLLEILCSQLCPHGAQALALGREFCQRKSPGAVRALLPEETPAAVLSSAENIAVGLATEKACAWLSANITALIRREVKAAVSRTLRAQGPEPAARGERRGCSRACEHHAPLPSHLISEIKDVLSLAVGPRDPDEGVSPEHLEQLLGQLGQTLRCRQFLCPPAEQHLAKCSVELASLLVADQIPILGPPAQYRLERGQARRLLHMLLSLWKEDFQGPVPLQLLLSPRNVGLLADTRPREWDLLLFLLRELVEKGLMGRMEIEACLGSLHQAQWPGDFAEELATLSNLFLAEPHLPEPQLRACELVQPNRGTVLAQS

T2: FLAG-tagged CDIN1 (F-CDIN1) (UniProt Q9Y2V0)
T2 sequence: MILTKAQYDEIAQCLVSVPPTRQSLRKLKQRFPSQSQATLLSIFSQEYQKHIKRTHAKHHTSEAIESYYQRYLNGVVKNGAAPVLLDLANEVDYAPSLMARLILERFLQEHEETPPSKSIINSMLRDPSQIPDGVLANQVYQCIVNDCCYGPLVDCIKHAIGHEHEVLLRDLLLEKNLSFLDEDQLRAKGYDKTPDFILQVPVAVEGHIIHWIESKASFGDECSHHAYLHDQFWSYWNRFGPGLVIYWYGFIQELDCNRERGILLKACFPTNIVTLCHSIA

T3: endogenous CDIN1 with a C-terminal HaloTag-FLAG (HF) epitope (human (endogenous in Flp-In 293 T-REx)) (UniProt Q9Y2V0)
T3 sequence: T2 sequence

B1: Strep-tagged CDAN1 (ST-CDAN1), wildtype (natural protein, human)
chain: T1 sequence with A194S, A195R, A196R, A541R, A544R, A548R
notes: Codanin-1 (CDAN1) cDNA from Horizon Discovery/Dharmacon; a point mutation of the clone (S421F) was corrected; in pCDNA3.1; Dimer by SEC-MALS and cryo-EM; Same plasmid used in Expi293 (purifications) and in Flp-In 293 T-REx (pulldowns); kept as one molecule; also called WT CDAN1; Strep-CDAN1; source: Expi293, transiently transfected, in lysate and purified in complexes (anti-FLAG, Strep-Tactin); …

Legend:
[1] = biological target: B1; assay: pull-down; Strep-Tactin Sepharose pulldown of ST-CDAN1 variants from lysates of transfected Flp-In 293 T-REx cells (alone, or co-transfected with FLAG-tagged ASF1 variants), IP buffer with 1% Triton X-100, 1 hr at 4°C; immunoblotting
[2] = biological target: T1, Strep-CDAN1 H*+B* (S194A/R195A/R196 + R541A/R544A/R548A) (human); assay: as above
[3] = biological target: T2, FLAG-tagged CDIN1 (F-CDIN1); assay: co-IP + pull-down; tandem purification from transiently transfected Expi293 cells: anti-FLAG immunoprecipitation, 3x FLAG peptide elution, then Strep-Tactin pulldown, desthiobiotin elution; Coomassie staining and immunoblotting
[4] = biological target: FLAG-tagged ASF1A (F-ASF1A) (human) (UniProt Q9Y294); assay: as above
[5] = biological target: T3, endogenous CDIN1 with a C-terminal HaloTag-FLAG (HF) epitope (human (endogenous in Flp-In 293 T-REx)); assay: co-IP; anti-FLAG M2 agarose immunoprecipitation of endogenously HaloTag-FLAG-tagged CDAN1 or CDIN1 from Flp-In 293 T-REx lysates in IP buffer (50 mM HEPES pH 7.5, 100 mM KOAc, 2.5 Mg(OAc)2, 1% Triton X-100); immunoblotting

binding [1]: binds
binding [2]: no binding
Molecule: FLAG-tagged ASF1B (F-ASF1B) (from UniProt Q9NVP2 1-202)

binding [3]: binds
Molecule: HA-tagged ASF1A (from UniProt Q9Y294 1-204)

binding [4]: binds
Molecule: endogenous ASF1A (from UniProt Q9Y294 1-204) (other; other documents disagree on this pair)

Molecule: B1
binding [5]: binds
